Data taken from patent US6207644A (Zeneca Limited, priority 1996, dated 2001).

Assay: general procedure: Fmoc solid-phase peptide synthesis; Fmoc-Rink Amide MBHA resin; HBTU/HOBT/DIPEA
Settings: whole synthesis, scale 1 mmol, acetate salt

For “PEPTIDE1{[Phv].R.A.A.[IIb].A.A.A.[Papa].[am]}$$$$V2.0”, the isolated mass (run 1) was 700 mg and the isolated mass (run 2) was 476 mg.

Some peptides are written in HELM: one residue between dots, names in brackets for other building blocks, links after the first $.
